From article PMC7909649, “Eukaryotic translation initiation factor 5A and its posttranslational modifications play an important role in proliferation and potentially in differentiation of the human enteric protozoan parasite Entamoeba histolytica” (PLoS Pathogens, 2021) come the findings set out here.

These are yes or no findings as the source states them, for the method shown. Some entries that bind do so weakly or less than the wild type. Tags and fused reporters may be left off the sequences shown.

In the experiment the target is T1, Entamoeba histolytica deoxyhypusine synthase 1 (EhDHS1) with amino-terminal His-tag, co-expressed with EhDHS2 (Entamoeba histolytica) (UniProt C4LXB8).
T1 sequence: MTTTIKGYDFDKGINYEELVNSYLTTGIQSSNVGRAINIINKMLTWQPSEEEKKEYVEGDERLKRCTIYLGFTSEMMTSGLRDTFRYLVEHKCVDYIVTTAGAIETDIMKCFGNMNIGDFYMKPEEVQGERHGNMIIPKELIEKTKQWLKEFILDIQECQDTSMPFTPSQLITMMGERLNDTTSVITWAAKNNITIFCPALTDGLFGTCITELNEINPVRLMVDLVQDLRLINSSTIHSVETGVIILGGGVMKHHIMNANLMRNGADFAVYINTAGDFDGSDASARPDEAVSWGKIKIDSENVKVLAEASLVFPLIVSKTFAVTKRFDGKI
Put plainly: native gel or EMSA; About 10 μg of co-expressed, copurified EhDHS1/2 on a 4-16% BN-PAGE gel (NativePAGE Novex Bis-Tris); destained gel and immunoblot with anti-His and anti-S tag antibodies; both purified.

B1: Entamoeba histolytica deoxyhypusine synthase 2 (EhDHS2) with carboxyl-terminal S-tag, co-expressed with EhDHS1 (natural protein, UniProt C4M2N7 1-336, looked up)
chain: MSITGEEFAKVTSKVLGESKEYKGEKCIGYDFDNGVDFNKVMEKMKYTGFQALNLGLCIEQVNEMRKNHAKIFLGMSSNIVSSGLREVIHYLVKNKFVDAIVVTAGGIEEDFIKTMHPTLLGDFYFKGKELYPNGYNRIGNLILPNSNYCEFEDWMDPLLLECLKEQNEHGVHWTPSKLVHKMGESINNESSIYYWAAKNNIPVFSPAITDGSIGDMIFFFSYKNEGLVLDLVQDVIKIDEMAFNAEKVGCLLVGAGIAKHHILNAMKRRGGCDYCAMLSTSIECDASDAGSEIAADRTKGFFKPECNPAKVIGDATILLPLIVASTFAQKEEPTK
notes: Deoxyhypusine synthase isotype 2 (EhDHS2) of Entamoeba histolytica, EHI_006030, XP_653426; stop codon removed to fuse the C-terminal S-tag of pETDuet; also called S-tag DHS2; EHI_006030; source: E. coli BL21 (DE3), co-expressed with EhDHS1 from pETDuet-EhDHS1/2; in lysate and copurified on Ni2+-NTA; not shown: S-tag, C-terminal, kept
B1: the binding result is reported as “binds”.
